Source: patent publication US11856945B2, “Methods and systems for preparing and preserving a biological sample” (Washington University, priority 2017, dated 2024)
For part of these data: At least one read-out could not be matched to a standard name with certainty. Some results were stated once for a whole list of compounds, not compound by compound.

B1: neutrophil gelatinase-associated lipocalin (protein, UniProt P80188 21-198, looked up)
Neutrophil …: QDSTSDLIPAPPLSKVPLQQNFQDNQFQGKWYVVGLAGNAILREDKDPQKMYATIYELKEDKSYNVTSVLFRKKKCDYWIRTFVPGCQPGEFTLGNIKSYPGLTSYLVRVVSTNYNQHAMVFFKKVSQNREYFKITLYGRTKELTSELKENFIRFSKSLGLPENHIVFPVPIDQCIDG
notes: urinary biomarker for acute kidney injury; human recombinant
B2: cystatin C: acute kidney injury biomarker in patient urine (protein, UniProt P01034 27-146, looked up)
Cystatin-C: SSPGKPPRLVGGPMDASVEEEGVRRALDFAVGEYNKASNDMYHSRALQVVRARKQIVAGVNYFLDVELGRTTCTKTQPNLDNCPFHDQPHLKRKAFCSFQIYAVPWQGTMTLSKSTCQDA

What was measured:
[1] = Recovery/elution of NGAL from ZIF-8 crystals and paper substrates (ELISA); type: physicochemical
Text: Preliminary experiments for investigating optimal buffer to dissolve NGAL embedded ZIF-8 crystals. To completely dissolve the crystals, the final pH of the system needs to be at or below 6.0 to ensure the complete release of NGAL from ZIF-8 encapsulation. For example, in the #4 composition (0.1 M phosphate buffer at pH 6.0), the crystals cannot be completely dissolved and this leads to incomplete recovery 60%, FIG. 8). Although the initial pH of the buffer is 6.0, the basic nature of ZIF-8 precursor residue in the system increases the pH of the buffer to 6.2, leading to incomplete release and recovery.
Left bar: Recovery percentage of ZIF-8 encapsulated NGAL dried on paper using the optimized elution buffer (#9 composition, 0.2 M PBS at pH=5.6 with 2 mM EDTA and 0.1% Tween 20). Middle bar: Recovery percentage of ZIF-8 encapsulated NGAL dried on paper using the #4 composition elution buffer (0.1 M PBS at pH=6 and 0.1% Tween 20). Right bar: Recovery percentage of NGAL alone dried on paper using the conventional elution buffer recipe (PBS at pH=7.4 with 0.1% Tween 20). The samples were recovered immediately after drying. 1 ml elution buffer was used to elute each paper strip. The spiked NGAL amount was set as the reference (100% recovery).
Protein recovery. […]

[2] = Protein microarray of Patient #3 urinary biomarkers after storage; type: physicochemical; settings: 40° C., 1 week; for biomarker preserved (fluorescence signal vs frozen liquid sample at −20° C.): Patient #3 urine with ZIF-8 encapsulation; for fluorescence signal intensity loss: Patient #3 urine without ZIF-8 encapsulation

Molecule | recovery of NGAL from ZIF-8 crystals ([1]; #4 composition (0.1 M phosphate buffer at pH 6.0)) [%] | recovery of encapsulated NGAL from ZIF-8 crystals ([1]; #9 composition elution buffer) | biomarker preserved (fluorescence signal vs frozen liquid sample at −20° C.) [2] [%] | fluorescence signal intensity loss [2]
B1 | 60 | over 95% | > 95 | 40-60%
B2 | – | – | > 95 | 40-60%
